# Source: the supplement of paper PMC8728848
# The other results are listed elsewhere or left out.
# Columns and labels:
# Assay in all cases: glycan array binding signal (z-score within array); higher = stronger binding
# Conditions in all cases: glycan notation: IUPAC condensed, linker removed
# [1] = target: Gal(a1-6)Glc
# Procedure, shortened: (§1)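 Glycan array binding is given as a within-array Z-score, which can be read as non-binding when negative. The arrays, 3228 of them, came from the Consortium for Functional Glycomics database and were retained only where the protein sequence was available. Z-scores were averaged across arrays of the same protein sequence at different concentrations or buffers and across linkers.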
# [2] = target: Gal(b1-2)Gal
# Procedure, shortened: as §1
# [3] = target: Gal(b1-3)Gal
# Procedure, shortened: as §1
# [4] = target: Gal(b1-3)Gal(b1-4)GlcNAc
# Procedure, shortened: as §1
# [5] = target: Gal(b1-3)GalNAc
# Procedure, shortened: as §1
# [6] = target: Gal(b1-3)GalNAc(a1-3)[Fuc(a1-2)]Gal(b1-4)Glc
# Procedure, shortened: as §1
# [7] = target: Gal(b1-3)GalNAc(a1-3)[Fuc(a1-2)]Gal(b1-4)GlcNAc
# Procedure, shortened: as §1
# [8] = target: Gal(b1-3)GalNAc(b1-3)Gal
# Procedure, shortened: as §1
# [9] = target: Gal(b1-3)GalNAc(b1-3)Gal(a1-4)Gal(b1-4)Glc
# Procedure, shortened: as §1
# [10] = target: Gal(b1-3)GalNAc(b1-4)Gal(b1-4)Glc
# Procedure, shortened: as §1
# [11] = target: Gal(b1-3)GalNAc(b1-4)[Neu5Ac(a2-3)]Gal(b1-4)Glc
# Procedure, shortened: as §1
# [12] = target: Gal(b1-3)GlcNAc
# Procedure, shortened: as §1
# [13] = target: Gal(b1-3)GlcNAc(a1-3)Gal(b1-4)GlcNAc
# Procedure, shortened: as §1
# [14] = target: Gal(b1-3)GlcNAc(a1-6)Gal(b1-4)GlcNAc
# Procedure, shortened: as §1
# [15] = target: Gal(b1-3)GlcNAc(b1-2)Man
# Procedure, shortened: as §1
# [16] = target: Gal(b1-3)GlcNAc(b1-2)Man(a1-3)[Gal(b1-3)GlcNAc(b1-2)Man(a1-6)]Man(b1-4)GlcNAc(b1-4)GlcNAc
# Procedure, shortened: as §1
# [17] = target: Gal(b1-3)GlcNAc(b1-2)Man(a1-3)[Gal(b1-3)GlcNAc(b1-2)Man(a1-6)]Man(b1-4)GlcNAc(b1-4)[Fuc(a1-6)]GlcNAc
# Procedure, shortened: as §1
# [18] = target: Gal(b1-3)GlcNAc(b1-2)Man(a1-3)[GlcNAc(b1-4)][Gal(b1-3)GlcNAc(b1-2)Man(a1-6)]Man(b1-4)GlcNAc(b1-4)GlcNAc
# Procedure, shortened: as §1
# [19] = target: Gal(b1-3)GlcNAc(b1-2)[Gal(b1-3)GlcNAc(b1-6)]Man(a1-6)[Gal(b1-3)GlcNAc(b1-2)Man(a1-3)]Man(b1-4)GlcNAc(b1-4)GlcNAc
# Procedure, shortened: as §1
# [20] = target: Gal(b1-3)GlcNAc(b1-3)Gal(b1-3)GlcNAc
# Procedure, shortened: as §1
# [21] = target: Gal(b1-3)GlcNAc(b1-3)Gal(b1-4)Glc
# Procedure, shortened: as §1
# [22] = target: Gal(b1-3)GlcNAc(b1-3)Gal(b1-4)GlcNAc
# Procedure, shortened: as §1
# [23] = target: Gal(b1-3)GlcNAc(b1-3)Gal(b1-4)GlcNAc(b1-2)Man(a1-3)[Gal(b1-3)GlcNAc(b1-3)Gal(b1-4)GlcNAc(b1-2)Man(a1-6)]Man(b1-4)GlcNAc(b1-4)GlcNAc
# Procedure, shortened: as §1
# [24] = target: Gal(b1-3)GlcNAc(b1-3)Gal(b1-4)GlcNAc(b1-2)[Gal(b1-3)GlcNAc(b1-3)Gal(b1-4)GlcNAc(b1-6)]Man(a1-6)[Gal(b1-3)GlcNAc(b1-3)Gal(b1-4)GlcNAc(b1-2)Man(a1-3)]Man(b1-4)GlcNAc(b1-4)[Fuc(a1-6)]GlcNAc
# Procedure, shortened: as §1
# [25] = target: Gal(b1-3)GlcNAc(b1-3)Gal(b1-4)GlcNAc(b1-3)Gal(b1-4)GlcNAc(b1-2)[Gal(b1-3)GlcNAc(b1-3)Gal(b1-4)GlcNAc(b1-3)Gal(b1-4)GlcNAc(b1-6)]Man(a1-6)[Gal(b1-3)GlcNAc(b1-3)Gal(b1-4)GlcNAc(b1-3)Gal(b1-4)GlcNAc(b1-2)Man(a1-3)]Man(b1-4)GlcNAc(b1-4)[Fuc(a1-6)]GlcNAc
# Procedure, shortened: as §1
# [26] = target: Gal(b1-3)GlcNAc(b1-3)Gal(b1-4)GlcNAc(b1-6)[Gal(b1-3)GlcNAc(b1-3)]Gal(b1-4)Glc
# Procedure, shortened: as §1
# [27] = target: Gal(b1-3)GlcNAc(b1-3)Gal(b1-4)[Fuc(a1-3)]GlcNAc
# Procedure, shortened: as §1
# [28] = target: Gal(b1-3)GlcNAc(b1-3)Gal(b1-4)[Fuc(a1-3)]GlcNAc(b1-6)[Gal(b1-3)GlcNAc(b1-3)]Gal(b1-4)Glc
# Procedure, shortened: as §1
# [29] = target: Gal(b1-3)GlcNAc(b1-3)GalNAc
# Procedure, shortened: as §1
# [30] = target: Gal(b1-3)GlcNAc(b1-6)Gal(b1-4)GlcNAc
# Procedure, shortened: as §1
# [31] = target: Gal(b1-3)GlcNAc(b1-6)GalNAc
# Procedure, shortened: as §1
# [32] = target: Gal(b1-3)GlcNAc(b1-6)[Gal(b1-3)]GalNAc
# Procedure, shortened: as §1
# [33] = target: Gal(b1-3)GlcNAc6S
# Procedure, shortened: as §1
# [34] = target: Gal(b1-3)[Fuc(a1-4)]GlcNAc
# Procedure, shortened: as §1
# [35] = target: Gal(b1-3)[Fuc(a1-4)]GlcNAc(b1-2)Man
# Procedure, shortened: as §1
# [36] = target: Gal(b1-3)[Fuc(a1-4)]GlcNAc(b1-2)Man(a1-3)[Gal(b1-3)[Fuc(a1-4)]GlcNAc(b1-2)Man(a1-6)]Man(b1-4)GlcNAc(b1-4)[Fuc(a1-6)]GlcNAc
# Procedure, shortened: as §1
# [37] = target: Gal(b1-3)[Fuc(a1-4)]GlcNAc(b1-3)Gal(b1-3)[Fuc(a1-4)]GlcNAc
# Procedure, shortened: as §1
# [38] = target: Gal(b1-3)[Fuc(a1-4)]GlcNAc(b1-3)Gal(b1-4)[Fuc(a1-3)]GlcNAc
# Procedure, shortened: as §1
# [39] = target: Gal(b1-3)[Fuc(a1-4)]GlcNAc(b1-6)GalNAc
# Procedure, shortened: as §1
# [40] = target: Gal(b1-3)[GlcNAc(b1-6)]GalNAc
# Procedure, shortened: as §1
# [41] = target: Gal(b1-3)[Neu5Ac(a2-6)]GalNAc
# Procedure, shortened: as §1
# [42] = target: Gal(b1-3)[Neu5Ac(a2-6)]GlcNAc(b1-4)Gal(b1-4)Glc
# Procedure, shortened: as §1
# [43] = target: Gal(b1-3)[Neu5Ac(b2-6)]GalNAc
# Procedure, shortened: as §1
# [44] = target: Gal(b1-4)Gal
# Procedure, shortened: as §1
# [45] = target: Gal(b1-4)GalNAc(a1-3)[Fuc(a1-2)]Gal(b1-4)GlcNAc
# Procedure, shortened: as §1
binder,measurement,setting,value
"DCIR1 (Mus musculus), Q9QZ15 (protein) MASEITYAEVKFKNESNSLHTYSESPAAPREKPIRDLRKPGSPSLLLTSLMLLLLLLAITFLVAFIIYFQKYSQLLEEKKAAKNIMHNELNCTKSVSPMEDKVWSCCPKDWRLFGSHCYLVPTVSSSASWNKSEENCSRMGAHLVVIQSQEEQDFITGILDTHAAYFIGLWDTGHRQWQWVDQTPYEESITFWHNGEPSSGNEKCATIIYRWKTGWGWNDISCSLKQKSVCQMKKINL",glycan array binding signal (z-score),[1],-0.103
same,glycan array binding signal (z-score),[2],0.428
same,glycan array binding signal (z-score),[3],-0.894
same,glycan array binding signal (z-score),[4],-0.241
same,glycan array binding signal (z-score),[5],-0.601
same,glycan array binding signal (z-score),[6],-0.837
same,glycan array binding signal (z-score),[7],-0.591
same,glycan array binding signal (z-score),[8],-0.492
same,glycan array binding signal (z-score),[9],0.592
same,glycan array binding signal (z-score),[10],0.215
same,glycan array binding signal (z-score),[11],2.65
same,glycan array binding signal (z-score),[12],0.184
same,glycan array binding signal (z-score),[13],-0.863
same,glycan array binding signal (z-score),[14],-0.35
same,glycan array binding signal (z-score),[15],0.223
same,glycan array binding signal (z-score),[16],-0.338
same,glycan array binding signal (z-score),[17],-0.797
same,glycan array binding signal (z-score),[18],0.064
same,glycan array binding signal (z-score),[19],-0.321
same,glycan array binding signal (z-score),[20],-0.535
same,glycan array binding signal (z-score),[21],-0.532
same,glycan array binding signal (z-score),[22],0.016
same,glycan array binding signal (z-score),[23],0.377
same,glycan array binding signal (z-score),[24],-0.063
same,glycan array binding signal (z-score),[25],2.45
same,glycan array binding signal (z-score),[26],0.051
same,glycan array binding signal (z-score),[27],-0.671
same,glycan array binding signal (z-score),[28],-0.632
same,glycan array binding signal (z-score),[29],-0.841
same,glycan array binding signal (z-score),[30],0.002
same,glycan array binding signal (z-score),[31],-0.327
same,glycan array binding signal (z-score),[32],1.56
same,glycan array binding signal (z-score),[33],-0.285
same,glycan array binding signal (z-score),[34],-0.069
same,glycan array binding signal (z-score),[35],0.967
same,glycan array binding signal (z-score),[36],1.47
same,glycan array binding signal (z-score),[37],-0.789
same,glycan array binding signal (z-score),[38],-0.398
same,glycan array binding signal (z-score),[39],-0.284
same,glycan array binding signal (z-score),[40],-0.805
same,glycan array binding signal (z-score),[41],-0.767
same,glycan array binding signal (z-score),[42],3.38
same,glycan array binding signal (z-score),[43],-0.696
same,glycan array binding signal (z-score),[44],-0.246
same,glycan array binding signal (z-score),[45],-0.718

# 2 entries picked at random from the list so far, as already listed:
binder,measurement,setting,value
"DCIR1 (Mus musculus), Q9QZ15 (protein) MASEITYAEVKFKNESNSLHTYSESPAAPREKPIRDLRKPGSPSLLLTSLMLLLLLLAITFLVAFIIYFQKYSQLLEEKKAAKNIMHNELNCTKSVSPMEDKVWSCCPKDWRLFGSHCYLVPTVSSSASWNKSEENCSRMGAHLVVIQSQEEQDFITGILDTHAAYFIGLWDTGHRQWQWVDQTPYEESITFWHNGEPSSGNEKCATIIYRWKTGWGWNDISCSLKQKSVCQMKKINL",glycan array binding signal (z-score),[21],-0.532
same,glycan array binding signal (z-score),[27],-0.671
